The supplement of paper PMC4604168 (melanoma cell lines)
This is one part of the list. Single values are uncertain, as repeats are few or missing.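 Imaging used 1,536-well plates; nuclei positive for cleaved PARP by antibody were divided by total DNA-stained nuclei to yield the apoptosis fraction. Doses for screening kept most cells viable, and cell lines differ markedly in resting and induced cleaved-PARP levels.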

Tested on: RPMI7951
Test: cleaved PARP positive nuclei fraction relative to DMSO control; melanoma cells; higher = more apoptosis
Conditions: library dose: low library concentration; 72 h

First: Nc1cccc2c1CN(C1CCC(=O)NC1=O)C2=O (stereo not drawn) [lenalidomide] + Oc1nc(-c2ccc(C(F)(F)F)cc2)nc2c1CSCC2 [XAV939] (first compound 1 µM, partner dose 2 µM)
Second: C[C@]1(c2nc3c(C(N)=O)cccc3[nH]2)CCCN1 [Veliparib] + CC(C)CCN1c2nc(Nc3cc(F)c(O)c(F)c3)ncc2N(C)C(=O)C1C [BID1870] (first compound 1.4 µM, partner dose 0.2 µM)
The “cleaved PARP positive nuclei fraction” value of the first is lower: 39.4% for the first, 79.2% for the second.

Going from `Cn1c(Nc2ccc(C(F)(F)F)cc2)nc2cc(Oc3ccnc(-c4ncc(C(F)(F)F)[nH]4)c3)ccc21` + COc1ccc(COc2ccc(Cc3cnc(N)nc3N)cc2OC)cc1 [GW2580] (first compound 0.08 µM, partner dose 1 µM) to `C=CCn1c(=O)c2cnc(Nc3ccc(N4CCN(C)CC4)cc3)nc2n1-c1cccc(C(C)(C)O)n1` + CCc1ccc(CCOc2ccc(CC3SC(=O)NC3=O)cc2)nc1 [pioglitazone] (first compound 0.02 µM, partner dose 2 µM), the “cleaved PARP positive nuclei fraction” value rises from 55% to 89.7%.

First: C=CCn1c(=O)c2cnc(Nc3ccc(N4CCN(C)CC4)cc3)nc2n1-c1cccc(C(C)(C)O)n1 + COC(=O)c1sccc1S(=O)(=O)Nc1ccc(Nc2ccccc2)cc1OC [GSK0660] (first compound 0.02 µM, partner dose 1 µM)
Second: COCC[n+]1c2c(n(Cc3cnccn3)c1C)C(=O)c1ccccc1C2=O + COc1ccc(COc2ccc(Cc3cnc(N)nc3N)cc2OC)cc1 [GW2580] (first compound 0.0004 µM, partner dose 1 µM)
The “cleaved PARP positive nuclei fraction” value of the first is lower: 39.3% for the first, 239% for the second.

Compared with `C#Cc1cccc(Nc2ncnc3cc(OCCOC)c(OCCOC)cc23)c1` [erlotinib] + COc1ccc2c(c1)CCC1C2CCC2(C)C(NCCCCCCN3C(=O)C=CC3=O)CCC12 [U73122] (first compound 0.8 µM, partner dose 0.4 µM), `C=CCn1c(=O)c2cnc(Nc3ccc(N4CCN(C)CC4)cc3)nc2n1-c1cccc(C(C)(C)O)n1` + O=C1NC(=O)/C(=C/c2ccc(-c3ccc(F)cc3O)o2)S1 [AS252424] (first compound 0.02 µM, partner dose 1 µM) is higher in “cleaved PARP positive nuclei fraction” value: 89.2% for the first, 124% for the second.

Going from `CC1(C)NC(=O)N(c2ccc([N+](=O)[O-])c(C(F)(F)F)c2)C1=O` [nilutamide] + COc1ccc(-c2ccc3c(N4CCOCC4)nc(N4C[C@@H](C)O[C@@H](C)C4)nc3n2)cc1CO [KU0063794] (first compound 1 µM, partner dose 0.02 µM) to `Nc1cccc2c1CN(C1CCC(=O)NC1=O)C2=O` (stereo not drawn) [lenalidomide] + COc1cc2ncnc(Nc3ccc(Oc4ccccc4)cc3)c2cc1OC [SrcI1] (first compound 1 µM, partner dose 2 µM), the “cleaved PARP positive nuclei fraction” value rises from 83.4% to 190%.

Compared with `CC(C)(C)c1cnc(CSc2cnc(NC(=O)C3CCNCC3)s2)o1` + Oc1nc(-c2ccc(C(F)(F)F)cc2)nc2c1CSCC2 [XAV939] (first compound 0.01 µM, partner dose 2 µM), `CO[C@@H]1[C@H](N(C)C(=O)c2ccccc2)C[C@H]2O[C@]1(C)n1c3ccccc3c3c4c(c5c6ccccc6n2c5c31)C(=O)NC4` [Midostaurin] + COc1ccc2c(c1)CCC1C2CCC2(C)C(NCCCCCCN3C(=O)C=CC3=O)CCC12 [U73122] (first compound 0.08 µM, partner dose 0.4 µM) is lower in “cleaved PARP positive nuclei fraction” value: 108% for the first, 43.4% for the second.

Tested on: RVH-421
Test: as above
Conditions: library dose: low library concentration; 72 h

First: C=CCn1c(=O)c2cnc(Nc3ccc(N4CCN(C)CC4)cc3)nc2n1-c1cccc(C(C)(C)O)n1 + CCCCCCCCCCCC1=C(O)C(=O)C=C(O)C1=O [Embelin] (first compound 0.02 µM, partner dose 1.2 µM)
Second: Cc1nc(Nc2ncc(C(=O)Nc3c(C)cccc3Cl)s2)cc(N2CCN(CCO)CC2)n1 [dasatanib] + Oc1nc(-c2ccc(C(F)(F)F)cc2)nc2c1CSCC2 [XAV939] (first compound 0.004 µM, partner dose 2 µM)
The “cleaved PARP positive nuclei fraction” value of the first is higher: 514% for the first, 129% for the second.

First: Cc1cc(N2CCOCC2)cc2[nH]c(-c3c(NC[C@@H](O)c4cccc(Cl)c4)cc[nH]c3=O)nc12 + COc1ccc(-c2ccc3c(N4CCOCC4)nc(N4C[C@@H](C)O[C@@H](C)C4)nc3n2)cc1CO [KU0063794] (first compound 0.2 µM, partner dose 0.02 µM)
Second: C=CCn1c(=O)c2cnc(Nc3ccc(N4CCN(C)CC4)cc3)nc2n1-c1cccc(C(C)(C)O)n1 + COc1ccc(COc2ccc(Cc3cnc(N)nc3N)cc2OC)cc1 [GW2580] (first compound 0.02 µM, partner dose 1 µM)
The “cleaved PARP positive nuclei fraction” value of the first is higher: 85% for the first, 52% for the second.

First: COCC[n+]1c2c(n(Cc3cnccn3)c1C)C(=O)c1ccccc1C2=O + O=C1NC(=O)/C(=C/c2ccc(-c3ccc(F)cc3O)o2)S1 [AS252424] (first compound 0.0004 µM, partner dose 1 µM)
Second: C#Cc1cccc(Nc2ncnc3cc(OCCOC)c(OCCOC)cc23)c1 [erlotinib] + Oc1cc(-c2nc(-c3ccccc3)[nH]c2-c2ccncc2)ccc1Cl [L779450] (first compound 0.8 µM, partner dose 0.2 µM)
The “cleaved PARP positive nuclei fraction” value of the first is higher: 128% for the first, 97.5% for the second.

Going from `Cn1nnc2c(C(N)=O)ncn2c1=O` [temozolomide] + CCc1ccc(CCOc2ccc(CC3SC(=O)NC3=O)cc2)nc1 [pioglitazone] (first compound 2 µM, partner dose 2 µM) to `OCCn1cc(-c2cnc3nnn(Cc4ccc5ncccc5c4)c3n2)cn1` + Oc1nc(-c2ccc(C(F)(F)F)cc2)nc2c1CSCC2 [XAV939] (first compound 1 µM, partner dose 2 µM), the “cleaved PARP positive nuclei fraction” value rises from 48.3% to 111%.

Compared with `Cc1ccc(NC(=O)c2cccc(N(C)C)c2)cc1NC(=O)c1ccc(O)cc1` + CCN(CC)CCCCNc1ncc2cc(-c3cc(OC)cc(OC)c3)c(NC(=O)NC(C)(C)C)nc2n1 [PD173074] (first compound 2 µM, partner dose 0.1 µM), `Cn1cncc1[C@@](N)(c1ccc(Cl)cc1)c1ccc2c(c1)c(-c1cccc(Cl)c1)cc(=O)n2C` [tipifarnib] + CCCCCCCCCCCC1=C(O)C(=O)C=C(O)C1=O [Embelin] (first compound 0.01 µM, partner dose 1.2 µM) is higher in “cleaved PARP positive nuclei fraction” value: 65.1% for the first, 124% for the second.

First: O=C(CCCCCCC(=O)Nc1ccccc1)NO [vorinostat] + c1cc(-c2cnn3cc(-c4ccc(OCCN5CCCCC5)cc4)cnc23)ccn1 [Dorsomorphin] (first compound 0.08 µM, partner dose 0.4 µM)
Second: NC(=O)Nc1cc(-c2cccc(F)c2)sc1C(=O)N[C@H]1CCCNC1 + COC(=O)c1sccc1S(=O)(=O)Nc1ccc(Nc2ccccc2)cc1OC [GSK0660] (first compound 0.02 µM, partner dose 1 µM)
The “cleaved PARP positive nuclei fraction” value of the first is higher: 69.7% for the first, 35.2% for the second.

Compared with `Cn1cncc1[C@@](N)(c1ccc(Cl)cc1)c1ccc2c(c1)c(-c1cccc(Cl)c1)cc(=O)n2C` [tipifarnib] + Oc1cc(-c2nc(-c3ccccc3)[nH]c2-c2ccncc2)ccc1Cl [L779450] (first compound 0.01 µM, partner dose 0.2 µM), `CO[C@@H]1[C@H](N(C)C(=O)c2ccccc2)C[C@H]2O[C@]1(C)n1c3ccccc3c3c4c(c5c6ccccc6n2c5c31)C(=O)NC4` [Midostaurin] + O=C(O)C(=O)Nc1sc2c(c1C(=O)O)CCNC2 [TCS401] (first compound 0.08 µM, partner dose 1.66667 µM) is lower in “cleaved PARP positive nuclei fraction” value: 102% for the first, 37% for the second.

Compared with `O=C(CCCCCCC(=O)Nc1ccccc1)NO` [vorinostat] + COc1ccc(COc2ccc(Cc3cnc(N)nc3N)cc2OC)cc1 [GW2580] (first compound 0.08 µM, partner dose 1 µM), `NC(=O)Nc1cc(-c2cccc(F)c2)sc1C(=O)N[C@H]1CCCNC1` + Cn1cc(/C=C2\C(=O)Nc3cccnc32)c2ccccc21 [GW441756] (first compound 0.02 µM, partner dose 0.4 µM) is lower in “cleaved PARP positive nuclei fraction” value: 65.5% for the first, 41.9% for the second.

Compared with `O=C(CCCCCCC(=O)Nc1ccccc1)NO` [vorinostat] + COc1cc(N2CCC(N3CCN(C)CC3)CC2)ccc1Nc1ncc(Cl)c(Nc2ccccc2S(=O)(=O)C(C)C)n1 [NVP-TAE684] (first compound 0.08 µM, partner dose 0.08 µM), `O=C(Nc1cccc(Cl)c1)Nc1ncc(CCNc2ncnc3ccsc23)s1` + O=C(O)C(=O)Nc1sc2c(c1C(=O)O)CCNC2 [TCS401] (first compound 0.0008 µM, partner dose 1.66667 µM) is higher in “cleaved PARP positive nuclei fraction” value: 23.1% for the first, 128% for the second.

First: Cn1nnc2c(C(N)=O)ncn2c1=O [temozolomide] + COc1ccc(COc2ccc(Cc3cnc(N)nc3N)cc2OC)cc1 [GW2580] (first compound 2 µM, partner dose 1 µM)
Second: Cn1cncc1[C@@](N)(c1ccc(Cl)cc1)c1ccc2c(c1)c(-c1cccc(Cl)c1)cc(=O)n2C [tipifarnib] + COc1ccc2c(c1)CCC1C2CCC2(C)C(NCCCCCCN3C(=O)C=CC3=O)CCC12 [U73122] (first compound 0.01 µM, partner dose 0.4 µM)
The “cleaved PARP positive nuclei fraction” value of the first is lower: 22.2% for the first, 25.2% for the second.

`C#Cc1cccc(Nc2ncnc3cc(OCCOC)c(OCCOC)cc23)c1` [erlotinib] + COc1cc2ncnc(Nc3ccc(Oc4ccccc4)cc3)c2cc1OC [SrcI1] (first compound 0.8 µM, partner dose 2 µM) was tested, and the “cleaved PARP positive nuclei fraction” value was 51.3%.
